Results taken from PMC7819943, “Rice protein-binding microarrays: a tool to detect cis-acting elements near promoter regions in rice”.
The list shows a part of the results.

The chains behind the UniProt entries cited, without tags or fusion partners.
UniProt Q0JBA9, entry or part of it: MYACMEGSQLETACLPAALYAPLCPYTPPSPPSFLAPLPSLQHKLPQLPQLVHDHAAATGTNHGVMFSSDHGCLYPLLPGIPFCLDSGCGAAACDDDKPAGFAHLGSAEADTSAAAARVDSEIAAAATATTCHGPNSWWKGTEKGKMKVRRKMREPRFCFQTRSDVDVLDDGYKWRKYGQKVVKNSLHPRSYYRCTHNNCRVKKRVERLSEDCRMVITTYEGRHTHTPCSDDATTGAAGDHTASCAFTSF

These sequences were tested against OsWRKY34 (Oryza sativa, UniProt Q0JBA9 1-250) (assay: protein-binding microarray (RPBM); PBS, 2% BSA, 51.3 ng/ul salmon testes DNA, 50 uM zinc acetate, 200 nM TF, 25 C, 1 h; high values mean tight binding). Conditions: protein: recombinant; tags: N-terminal polyhistidine and DsRed monomer fusion (pET32a); label: CyDye5-dUTP incorporated in the synthesized complementary strand; 3' TTTTT single-stranded linker to array surface; dsDNA, one strand shown.
Outline: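 Transcription factors, each fused N-terminally to a polyhistidine tag and DsRed, were expressed in E. coli BL21-CodonPlus and purified on Ni–NTA. A custom Agilent array was made double-stranded by primer extension with Cy5-dUTP and blocked with 2% BSA. It was incubated with 200 nM protein in PBS, 2% BSA, salmon testes DNA and 50 µM zinc acetate at 25 °C for 1 h, then washed. The binding signal is per-feature fluorescence intensity (arbitrary units) read on an Axon 4000B scanner.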

Sequence	binding signal
CTTTCCCCGCGCCATCGATCCACGCCATTATATAGCTGTCCGGAGTCACCTAGTGCAG	10800 fluorescence intensity (a.u.)
AAGCAAAACCCTAGACTCCTCCTTAGTCCTCAGTCCTCATCGGAGTCACCTAGTGCAG	8040 fluorescence intensity (a.u.)
ACCACCGTTATATCAAGAACTACTCTCTTCCGCATTTAAGCGGAGTCACCTAGTGCAG	8160 fluorescence intensity (a.u.)
GCGGGCCCCACACCCTCGTACTTCGCTTGCTGTAAACTGACGGAGTCACCTAGTGCAG	10100 fluorescence intensity (a.u.)
TCAAACATATTTTAAAAAGTCAACGGTGTCAAACATTTAGCGGAGTCACCTAGTGCAG	9250 fluorescence intensity (a.u.)
TTGATTCAAACTCGTCCCACCAATCTTTCCCATTGATTCGCGGAGTCACCTAGTGCAG	9180 fluorescence intensity (a.u.)
TCACACAGATAGCCACGCCGCCGCCGCCGCCTCCGCCTGACGGAGTCACCTAGTGCAG	8880 fluorescence intensity (a.u.)
AAGTGATATATCACCTATTGATTTATGTATCAACTTTTTTCGGAGTCACCTAGTGCAG	8600 fluorescence intensity (a.u.)
ATGTCTGTATCTGTTATTGTTTCTATTGTGTCTGATCCAACGGAGTCACCTAGTGCAG	8980 fluorescence intensity (a.u.)
GCCCCACCATATCCTTAAGAGCCCATACAGGATCGTTTCTCGGAGTCACCTAGTGCAG	8340 fluorescence intensity (a.u.)
AGTCGTCGTCTCGCCGCATTATTATTTTTTTTCTTCGTCTCGGAGTCACCTAGTGCAG	8400 fluorescence intensity (a.u.)
AGGGTTAGGGTTTTTCTACTTTTATTTTTTTGTGTTTTTTCGGAGTCACCTAGTGCAG	15800 fluorescence intensity (a.u.)
GGTGGCGTGCAGGGTGGAGCGGGAGGGCGGCGGCGGGTGGCGGAGTCACCTAGTGCAG	17300 fluorescence intensity (a.u.)
ATATATGGTTTCTGATTTATTAACATTGTATTCTAATGTTCGGAGTCACCTAGTGCAG	8740 fluorescence intensity (a.u.)
CCGCTTGATTTATGATTTATTGATGGCATCGCGTATACACCGGAGTCACCTAGTGCAG	8120 fluorescence intensity (a.u.)
GTGTTTAGGCACTGTAGTCATGCCCGTCCAATCCTGCAGGCGGAGTCACCTAGTGCAG	8480 fluorescence intensity (a.u.)
ATTACACCAGCCATTACACCAGCTGCGGCCGGCTGCTTTTCGGAGTCACCTAGTGCAG	9500 fluorescence intensity (a.u.)
GCTTCCTTGTCCGATTTGGTGGTTGATTCGTGTTTTTGCTCGGAGTCACCTAGTGCAG	9300 fluorescence intensity (a.u.)
TCTTGTATTTTTGACTTTTTGTCTCTCGAGAGGACATCCCCGGAGTCACCTAGTGCAG	10500 fluorescence intensity (a.u.)
TAACAATTTTTTAAAATAACTTTTCTATCCACTTTTTTTACGGAGTCACCTAGTGCAG	9110 fluorescence intensity (a.u.)
TATTTAGTTTTTGGTTGTGTGTGTGATTTGTTCTTCATTCCGGAGTCACCTAGTGCAG	14000 fluorescence intensity (a.u.)

Sequence	binding signal
TACTTTTCTTCTTCCGTAAATTCATACCACCTTACATTTTCGGAGTCACCTAGTGCAG	8900 fluorescence intensity (a.u.)
AACTTCCTTTCACTCATCGAACGGCACCCAAACATCTTTCCGGAGTCACCTAGTGCAG	9350 fluorescence intensity (a.u.)
TATGCCACCCCATGCCCGCCTCTTCTCGCCACCCACAACCCGGAGTCACCTAGTGCAG	10600 fluorescence intensity (a.u.)
GCCTAGGCGCCGTTGTTTCGGACTAATTTTTTCTTCTCAACGGAGTCACCTAGTGCAG	9390 fluorescence intensity (a.u.)
CACTGCACACGCCACTACTCTTTTTCCTTGTTGTGGCTCACGGAGTCACCTAGTGCAG	10700 fluorescence intensity (a.u.)
ATGTCCACGTCGAACCCCACCGACCTCGCGAGCCGCGCCACGGAGTCACCTAGTGCAG	9020 fluorescence intensity (a.u.)
TTGTAGTTTCTTTGTCAGGTTTTTCCTGTTTCTGTGGCTACGGAGTCACCTAGTGCAG	10200 fluorescence intensity (a.u.)
TTCTTCAGCTTACTGGTTGTGTAGCTTCTTCTGGCTTTTCCGGAGTCACCTAGTGCAG	12000 fluorescence intensity (a.u.)
GATCTTTATCCCGTTTAAGAACTGTCTTTTCATCACTTCACGGAGTCACCTAGTGCAG	9100 fluorescence intensity (a.u.)
TAGACCTAAATAAGTCATTGCTATTTCTCTTGCTTCCATACGGAGTCACCTAGTGCAG	8790 fluorescence intensity (a.u.)
GTGACATTCGACGATCTGGGCTCACGATACCACACACACTCGGAGTCACCTAGTGCAG	9230 fluorescence intensity (a.u.)
ATGTATGACGCTGTTGACTTTGTAACCAATATTTGACCATCGGAGTCACCTAGTGCAG	13400 fluorescence intensity (a.u.)
AACGATGACGACGTGTGCGCGCTGTTGTTTTTTTGTCCCACGGAGTCACCTAGTGCAG	19700 fluorescence intensity (a.u.)
CCCGCTGTCAAGTATGCTACTTATGATTATCTCCTACTATCGGAGTCACCTAGTGCAG	9060 fluorescence intensity (a.u.)
GAACAAACATTACTTACATAATGAGTTTCGTGTTGCGGGGCGGAGTCACCTAGTGCAG	8680 fluorescence intensity (a.u.)
TCCGTCCTCGCCGTCGCCATCTCGGACAGCTACTAGCATGCGGAGTCACCTAGTGCAG	8120 fluorescence intensity (a.u.)
CACTCCTGCTGCCGTCCAGTTGCAATTGCGTTTTCTCCTTCGGAGTCACCTAGTGCAG	16700 fluorescence intensity (a.u.)
GTCCGTCCACTCACCCACGCCACCGCCACCGCCACGCATGCGGAGTCACCTAGTGCAG	11000 fluorescence intensity (a.u.)
GCTGCCTAATTTTGTCCGAGATGTGCCCATCAAATCCAACCGGAGTCACCTAGTGCAG	10600 fluorescence intensity (a.u.)
CATTGGTTGTATTCCTCTTTTCCATACTTAATATATTGGACGGAGTCACCTAGTGCAG	11000 fluorescence intensity (a.u.)
GCATTTCGTGTTCCCTTTTTGCCTTTTTTTCCCCTTTTCTCGGAGTCACCTAGTGCAG	10300 fluorescence intensity (a.u.)

Already shown: an excerpt of the list.
Sequence	binding signal
TTCTTCAGCTTACTGGTTGTGTAGCTTCTTCTGGCTTTTCCGGAGTCACCTAGTGCAG	12000 fluorescence intensity (a.u.)
GATCTTTATCCCGTTTAAGAACTGTCTTTTCATCACTTCACGGAGTCACCTAGTGCAG	9100 fluorescence intensity (a.u.)
